Test results from US6284476A, “Method of identifying individuals suffering from a cellular abnormality some of whose abnormal cells present complexes of human leukocyte antigen/tyrosinase derived peptides, and methods for treating said individuals” (Ludwig Institute for Cancer Research, priority 1995, dated 2001).
Not every detail of the peptide structures is certain; ends, links or a residue may be inferred.

Test system: tyrosinase loss variant cell lines SK29-MEL 1.218 and T202LB
Test: 51Cr release assay: peptide sensitization of HLA-A2 presenting tyrosinase loss variant cells to CTL lysis
Type: cell-based, human
Settings: for recognition of complexes of HLA-A2 and peptide by CTL clone CTL 210/9: effector CTL 210/9, parallel experiment; for recognition of complexes of HLA-A2 and peptide by CTL clone CTL IVSB: effector CTL IVSB

CSCC[C@H](NC(=O)[C@@H](NC(=O)CNC(=O)[C@H](CC(N)=O)NC(=O)[C@H](CCSC)NC(=O)[C@@H](N)Cc1ccc(O)cc1)[C@@H](C)O)C(=O)N[C@@H](CO)C(=O)N[C@@H](CCC(N)=O)C(=O)N[C@H](C(=O)O)C(C)C [SEQ ID NO: 2, Tyr Met Asn Gly Thr Met Ser Gln Val]
recognition of peptide by cytolytic T cell clone CTL 2/9 (effector CTL 2/9, peptide 100 μM down to 0.01 μM, E/T 40/1, 4 h): but not
recognition of complexes of HLA-A2 and peptide by CTL clone CTL 210/9: did not recognize
recognition of complexes of HLA-A2 and peptide by CTL clone CTL 210/9 (listed as SEQ ID No.2): not recognized
recognition of complexes of HLA-A2 and peptide by CTL clone CTL IVSB (peptide 100 μM down to 0.01 μM, E/T 40/1, 4 h): recognized
recognition of complexes of HLA-A2 and peptide by CTL clone CTL IVSB (peptide 100 μM down to 0.01 μM, E/T 40/1, 4 h, listed as SEQ ID No.2): recognition
